Test results published in PMC12891897, “Blocking TRIM47-mediated HNF4α degradation suppresses hepatocellular carcinoma progression” (Acta Pharmaceutica Sinica. B, 2025).
No constants are given. Whether binding was seen depends on the method and setting. In cells and extracts the contact can be indirect. Some results given as binding are weak or reduced against the parent protein; the word gives no strength. For some assays here: Sequences can lack the tags named with a protein.

By UniProt entry, the sequences of proteins in these tests, tags left out. Where a name states a change or a piece, a line headed by the entry shows the natural chain unless it says otherwise.
UniProt Q96LD4: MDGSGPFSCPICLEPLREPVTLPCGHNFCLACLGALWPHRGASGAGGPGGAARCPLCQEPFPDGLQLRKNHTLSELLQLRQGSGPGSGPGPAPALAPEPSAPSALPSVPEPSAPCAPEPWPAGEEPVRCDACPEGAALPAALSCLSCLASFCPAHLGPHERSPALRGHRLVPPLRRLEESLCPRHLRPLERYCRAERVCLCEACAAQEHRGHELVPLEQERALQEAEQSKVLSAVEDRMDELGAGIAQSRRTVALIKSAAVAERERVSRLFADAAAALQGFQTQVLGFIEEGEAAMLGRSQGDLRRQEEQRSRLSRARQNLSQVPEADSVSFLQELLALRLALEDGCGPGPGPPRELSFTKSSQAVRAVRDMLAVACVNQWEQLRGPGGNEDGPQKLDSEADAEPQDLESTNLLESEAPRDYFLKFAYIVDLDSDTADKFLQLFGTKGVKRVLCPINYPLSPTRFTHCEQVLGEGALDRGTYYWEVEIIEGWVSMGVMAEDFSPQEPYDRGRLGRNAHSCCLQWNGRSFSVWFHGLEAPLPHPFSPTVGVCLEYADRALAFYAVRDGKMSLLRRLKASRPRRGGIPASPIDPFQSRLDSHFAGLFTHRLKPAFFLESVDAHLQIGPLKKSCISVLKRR

T1: V5-tagged HNF4α (hepatocyte nuclear factor 4alpha), full length (amino acids 1–474) (human) (UniProt P41235)
T1 sequence: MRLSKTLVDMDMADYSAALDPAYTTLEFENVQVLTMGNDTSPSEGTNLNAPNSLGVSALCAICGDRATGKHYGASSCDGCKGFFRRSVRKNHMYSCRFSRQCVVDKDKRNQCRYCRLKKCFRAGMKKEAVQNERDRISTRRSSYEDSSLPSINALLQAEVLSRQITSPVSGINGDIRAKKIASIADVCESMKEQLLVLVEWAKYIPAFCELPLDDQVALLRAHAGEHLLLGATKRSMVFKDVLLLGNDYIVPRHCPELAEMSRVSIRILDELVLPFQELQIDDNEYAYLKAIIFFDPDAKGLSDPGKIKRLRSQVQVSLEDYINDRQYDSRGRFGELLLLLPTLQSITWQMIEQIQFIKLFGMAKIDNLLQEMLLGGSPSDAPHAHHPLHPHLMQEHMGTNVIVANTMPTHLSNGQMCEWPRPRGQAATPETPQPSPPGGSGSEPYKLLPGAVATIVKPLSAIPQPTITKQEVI

T2: HNF4α, endogenous in MHCC-L cells (human (endogenous in MHCC-L)) (UniProt P41235)
T2 sequence: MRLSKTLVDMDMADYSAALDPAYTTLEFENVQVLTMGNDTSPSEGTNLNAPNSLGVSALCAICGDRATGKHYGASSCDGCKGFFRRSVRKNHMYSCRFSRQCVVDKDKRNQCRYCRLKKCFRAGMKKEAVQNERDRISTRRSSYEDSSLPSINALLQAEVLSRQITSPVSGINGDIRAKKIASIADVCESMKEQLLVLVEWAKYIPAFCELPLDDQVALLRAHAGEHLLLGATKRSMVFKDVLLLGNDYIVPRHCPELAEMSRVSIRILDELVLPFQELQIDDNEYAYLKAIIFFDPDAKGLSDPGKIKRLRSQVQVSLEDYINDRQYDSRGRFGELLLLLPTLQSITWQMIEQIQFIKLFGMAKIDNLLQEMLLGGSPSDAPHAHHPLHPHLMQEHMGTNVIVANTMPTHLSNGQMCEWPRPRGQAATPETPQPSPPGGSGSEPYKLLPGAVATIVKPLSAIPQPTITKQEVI

B1: V5-tagged HNF4α (hepatocyte nuclear factor 4alpha), full length (amino acids 1–474) (protein, UniProt P41235-1 1-474)
chain: MRLSKTLVDMDMADYSAALDPAYTTLEFENVQVLTMGNDTSPSEGTNLNAPNSLGVSALCAICGDRATGKHYGASSCDGCKGFFRRSVRKNHMYSCRFSRQCVVDKDKRNQCRYCRLKKCFRAGMKKEAVQNERDRISTRRSSYEDSSLPSINALLQAEVLSRQITSPVSGINGDIRAKKIASIADVCESMKEQLLVLVEWAKYIPAFCELPLDDQVALLRAHAGEHLLLGATKRSMVFKDVLLLGNDYIVPRHCPELAEMSRVSIRILDELVLPFQELQIDDNEYAYLKAIIFFDPDAKGLSDPGKIKRLRSQVQVSLEDYINDRQYDSRGRFGELLLLLPTLQSITWQMIEQIQFIKLFGMAKIDNLLQEMLLGGSPSDAPHAHHPLHPHLMQEHMGTNVIVANTMPTHLSNGQMCEWPRPRGQAATPETPQPSPPGGSGSEPYKLLPGAVATIVKPLSAIPQPTITKQEVI

Key:
[1] = target: T1, V5-tagged HNF4α (hepatocyte nuclear factor 4alpha), full length (amino acids 1–474) (human); experiment: co-IP; Hep3B cells with V5-HNF4α, endogenous TRIM47; cells treated with the indicated concentrations of CZ-2401 for 24 h
[2] = target: T2, HNF4α, endogenous in MHCC-L cells (human (endogenous in MHCC-L)); experiment: co-IP; endogenous; MHCC-L lysate with HNF4α antibody (or IgG) and protein G agarose at 4 °C overnight, Western blotting
[3] = target: Flag-tagged TRIM47 (tripartite motif 47), full length (amino acids 1–638) (human) (UniProt Q96LD4); experiment: proximity ligation; Duolink in situ PLA in Huh7 cells transfected with Flag-TRIM47 and V5-HNF4α for 48 h, fixed with 4% PFA, confocal microscopy
[4] = target: Flag-tagged TRIM47 (tripartite motif 47), full length (amino acids 1–638) (human) (UniProt Q96LD4); experiment: co-IP; HEK293T cells co-transfected with Flag-TRIM47 and V5-HNF4α (or truncations and mutants) for 48 h; IP lysis buffer; anti-Flag or anti-V5 affinity gel overnight at 4 °C; wash 20 mmol/L Tris-HCl pH 7.4, 100 mmol/L NaCl, 0.5% NP40, 0.5% Triton-X100, 10% glycerol; Western blotting; in one panel cells treated with CZ-2401 (10 μmol/L) for 24 h
[5] = target: Flag-tagged TRIM47 (tripartite motif 47), full length (amino acids 1–638) (human) (UniProt Q96LD4); experiment: co-IP; Huh7 cells transfected with Flag-TRIM47 and V5-HNF4α, Western blotting

| Molecule | binding [1] | binding [2] | binding [3] | binding [4] | binding [5] |
| --- | --- | --- | --- | --- | --- |
| TRIM47, endogenous (from UniProt Q96LD4-1 1-638) (enzyme) | binds | binds | – | – | – |
| B1 | – | – | binds | binds | binds |
